Assay results taken from paper PMC6333334.
Results are given in words; binding and its absence hold for the method and conditions named. In cells and extracts the contact can be indirect. For some assays here: A result given as binding can be weak or reduced; the word gives no strength.

Chains of the proteins cited; added tags and fusions are not shown. Lines headed by an entry give the natural chain unless they say otherwise; changes in a name come on top. Residues count along the entry.
UniProt Q24298: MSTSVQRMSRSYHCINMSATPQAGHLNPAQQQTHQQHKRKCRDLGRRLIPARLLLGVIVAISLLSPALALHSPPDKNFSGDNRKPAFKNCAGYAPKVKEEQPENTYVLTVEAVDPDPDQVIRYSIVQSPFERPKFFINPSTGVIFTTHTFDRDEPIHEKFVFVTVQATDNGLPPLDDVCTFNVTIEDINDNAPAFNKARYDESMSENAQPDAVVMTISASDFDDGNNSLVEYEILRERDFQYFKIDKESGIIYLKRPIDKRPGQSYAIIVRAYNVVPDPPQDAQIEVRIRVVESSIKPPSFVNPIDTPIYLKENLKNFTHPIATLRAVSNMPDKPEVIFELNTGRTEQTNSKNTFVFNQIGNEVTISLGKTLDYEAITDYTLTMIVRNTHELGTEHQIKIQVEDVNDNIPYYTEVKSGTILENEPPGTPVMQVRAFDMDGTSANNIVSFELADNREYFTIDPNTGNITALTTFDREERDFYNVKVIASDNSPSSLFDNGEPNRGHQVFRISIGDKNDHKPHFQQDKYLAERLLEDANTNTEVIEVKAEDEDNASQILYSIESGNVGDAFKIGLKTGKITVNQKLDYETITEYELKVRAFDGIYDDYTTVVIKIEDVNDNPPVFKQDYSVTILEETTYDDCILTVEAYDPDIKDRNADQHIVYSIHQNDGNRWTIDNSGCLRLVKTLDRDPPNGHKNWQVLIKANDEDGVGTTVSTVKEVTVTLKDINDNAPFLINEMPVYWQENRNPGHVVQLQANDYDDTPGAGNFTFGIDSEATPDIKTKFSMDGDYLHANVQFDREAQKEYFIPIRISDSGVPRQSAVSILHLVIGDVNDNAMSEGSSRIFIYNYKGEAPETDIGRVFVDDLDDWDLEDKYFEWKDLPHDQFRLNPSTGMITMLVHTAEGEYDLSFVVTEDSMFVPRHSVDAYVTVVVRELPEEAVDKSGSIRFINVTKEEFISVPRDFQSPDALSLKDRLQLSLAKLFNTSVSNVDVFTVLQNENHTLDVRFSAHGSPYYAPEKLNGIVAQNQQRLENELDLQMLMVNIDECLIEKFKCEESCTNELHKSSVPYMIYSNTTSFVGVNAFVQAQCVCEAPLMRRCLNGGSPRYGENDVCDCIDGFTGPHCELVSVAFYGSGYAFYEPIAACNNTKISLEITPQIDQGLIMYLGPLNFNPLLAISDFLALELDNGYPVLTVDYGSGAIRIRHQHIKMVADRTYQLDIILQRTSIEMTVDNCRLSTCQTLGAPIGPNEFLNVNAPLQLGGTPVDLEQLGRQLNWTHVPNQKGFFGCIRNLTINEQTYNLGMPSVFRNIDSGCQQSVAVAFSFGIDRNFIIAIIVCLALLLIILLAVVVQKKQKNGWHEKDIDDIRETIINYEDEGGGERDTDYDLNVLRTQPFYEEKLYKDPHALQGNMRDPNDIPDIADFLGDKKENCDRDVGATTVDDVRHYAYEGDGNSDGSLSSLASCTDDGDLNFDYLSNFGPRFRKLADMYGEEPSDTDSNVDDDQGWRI
UniProt Q04164, residues 42-1693: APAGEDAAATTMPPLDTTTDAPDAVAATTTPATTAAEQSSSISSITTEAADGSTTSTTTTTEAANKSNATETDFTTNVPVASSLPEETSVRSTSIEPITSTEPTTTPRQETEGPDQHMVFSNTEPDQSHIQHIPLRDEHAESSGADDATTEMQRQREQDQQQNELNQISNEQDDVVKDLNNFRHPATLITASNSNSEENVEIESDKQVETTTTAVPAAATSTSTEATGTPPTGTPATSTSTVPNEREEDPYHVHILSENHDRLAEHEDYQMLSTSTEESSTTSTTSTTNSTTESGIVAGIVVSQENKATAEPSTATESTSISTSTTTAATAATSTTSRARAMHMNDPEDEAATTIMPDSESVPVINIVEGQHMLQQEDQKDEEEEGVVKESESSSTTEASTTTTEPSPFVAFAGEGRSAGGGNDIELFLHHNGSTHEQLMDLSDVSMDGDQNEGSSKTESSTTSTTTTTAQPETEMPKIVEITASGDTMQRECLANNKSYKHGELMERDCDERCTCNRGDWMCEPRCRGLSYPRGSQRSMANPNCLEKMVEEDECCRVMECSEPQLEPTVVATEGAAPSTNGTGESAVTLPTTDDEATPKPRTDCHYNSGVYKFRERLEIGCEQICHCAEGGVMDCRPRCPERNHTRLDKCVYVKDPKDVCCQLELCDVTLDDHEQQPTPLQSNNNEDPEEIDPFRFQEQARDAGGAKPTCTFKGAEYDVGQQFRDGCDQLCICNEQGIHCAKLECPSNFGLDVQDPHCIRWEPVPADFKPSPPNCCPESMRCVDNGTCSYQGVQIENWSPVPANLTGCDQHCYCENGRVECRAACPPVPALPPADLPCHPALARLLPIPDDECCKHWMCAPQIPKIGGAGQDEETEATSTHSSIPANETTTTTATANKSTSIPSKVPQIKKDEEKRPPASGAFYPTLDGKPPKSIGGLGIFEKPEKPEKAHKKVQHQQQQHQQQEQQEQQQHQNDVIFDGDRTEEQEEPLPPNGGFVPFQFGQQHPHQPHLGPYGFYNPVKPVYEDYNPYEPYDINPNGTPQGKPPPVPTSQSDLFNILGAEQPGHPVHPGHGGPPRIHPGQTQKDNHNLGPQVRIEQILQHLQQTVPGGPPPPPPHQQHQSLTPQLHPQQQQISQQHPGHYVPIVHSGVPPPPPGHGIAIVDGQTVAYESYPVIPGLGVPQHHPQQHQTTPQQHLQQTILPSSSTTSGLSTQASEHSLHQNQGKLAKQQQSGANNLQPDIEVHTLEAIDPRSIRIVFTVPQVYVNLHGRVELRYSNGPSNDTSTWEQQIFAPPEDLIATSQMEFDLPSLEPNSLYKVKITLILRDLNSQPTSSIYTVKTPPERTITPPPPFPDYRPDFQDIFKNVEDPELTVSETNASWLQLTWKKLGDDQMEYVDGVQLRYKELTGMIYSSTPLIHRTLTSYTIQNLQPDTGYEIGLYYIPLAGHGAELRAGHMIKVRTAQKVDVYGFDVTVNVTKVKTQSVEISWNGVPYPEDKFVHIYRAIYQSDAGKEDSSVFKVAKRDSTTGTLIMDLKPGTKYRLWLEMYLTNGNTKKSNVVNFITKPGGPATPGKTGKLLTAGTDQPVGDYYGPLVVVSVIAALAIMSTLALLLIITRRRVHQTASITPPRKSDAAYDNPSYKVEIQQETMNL
UniProt Q9VFX3: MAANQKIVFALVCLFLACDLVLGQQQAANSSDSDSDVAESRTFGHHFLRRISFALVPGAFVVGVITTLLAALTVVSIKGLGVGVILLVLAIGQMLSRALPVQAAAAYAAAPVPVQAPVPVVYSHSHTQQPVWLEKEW
UniProt P10040, residues 84-2146: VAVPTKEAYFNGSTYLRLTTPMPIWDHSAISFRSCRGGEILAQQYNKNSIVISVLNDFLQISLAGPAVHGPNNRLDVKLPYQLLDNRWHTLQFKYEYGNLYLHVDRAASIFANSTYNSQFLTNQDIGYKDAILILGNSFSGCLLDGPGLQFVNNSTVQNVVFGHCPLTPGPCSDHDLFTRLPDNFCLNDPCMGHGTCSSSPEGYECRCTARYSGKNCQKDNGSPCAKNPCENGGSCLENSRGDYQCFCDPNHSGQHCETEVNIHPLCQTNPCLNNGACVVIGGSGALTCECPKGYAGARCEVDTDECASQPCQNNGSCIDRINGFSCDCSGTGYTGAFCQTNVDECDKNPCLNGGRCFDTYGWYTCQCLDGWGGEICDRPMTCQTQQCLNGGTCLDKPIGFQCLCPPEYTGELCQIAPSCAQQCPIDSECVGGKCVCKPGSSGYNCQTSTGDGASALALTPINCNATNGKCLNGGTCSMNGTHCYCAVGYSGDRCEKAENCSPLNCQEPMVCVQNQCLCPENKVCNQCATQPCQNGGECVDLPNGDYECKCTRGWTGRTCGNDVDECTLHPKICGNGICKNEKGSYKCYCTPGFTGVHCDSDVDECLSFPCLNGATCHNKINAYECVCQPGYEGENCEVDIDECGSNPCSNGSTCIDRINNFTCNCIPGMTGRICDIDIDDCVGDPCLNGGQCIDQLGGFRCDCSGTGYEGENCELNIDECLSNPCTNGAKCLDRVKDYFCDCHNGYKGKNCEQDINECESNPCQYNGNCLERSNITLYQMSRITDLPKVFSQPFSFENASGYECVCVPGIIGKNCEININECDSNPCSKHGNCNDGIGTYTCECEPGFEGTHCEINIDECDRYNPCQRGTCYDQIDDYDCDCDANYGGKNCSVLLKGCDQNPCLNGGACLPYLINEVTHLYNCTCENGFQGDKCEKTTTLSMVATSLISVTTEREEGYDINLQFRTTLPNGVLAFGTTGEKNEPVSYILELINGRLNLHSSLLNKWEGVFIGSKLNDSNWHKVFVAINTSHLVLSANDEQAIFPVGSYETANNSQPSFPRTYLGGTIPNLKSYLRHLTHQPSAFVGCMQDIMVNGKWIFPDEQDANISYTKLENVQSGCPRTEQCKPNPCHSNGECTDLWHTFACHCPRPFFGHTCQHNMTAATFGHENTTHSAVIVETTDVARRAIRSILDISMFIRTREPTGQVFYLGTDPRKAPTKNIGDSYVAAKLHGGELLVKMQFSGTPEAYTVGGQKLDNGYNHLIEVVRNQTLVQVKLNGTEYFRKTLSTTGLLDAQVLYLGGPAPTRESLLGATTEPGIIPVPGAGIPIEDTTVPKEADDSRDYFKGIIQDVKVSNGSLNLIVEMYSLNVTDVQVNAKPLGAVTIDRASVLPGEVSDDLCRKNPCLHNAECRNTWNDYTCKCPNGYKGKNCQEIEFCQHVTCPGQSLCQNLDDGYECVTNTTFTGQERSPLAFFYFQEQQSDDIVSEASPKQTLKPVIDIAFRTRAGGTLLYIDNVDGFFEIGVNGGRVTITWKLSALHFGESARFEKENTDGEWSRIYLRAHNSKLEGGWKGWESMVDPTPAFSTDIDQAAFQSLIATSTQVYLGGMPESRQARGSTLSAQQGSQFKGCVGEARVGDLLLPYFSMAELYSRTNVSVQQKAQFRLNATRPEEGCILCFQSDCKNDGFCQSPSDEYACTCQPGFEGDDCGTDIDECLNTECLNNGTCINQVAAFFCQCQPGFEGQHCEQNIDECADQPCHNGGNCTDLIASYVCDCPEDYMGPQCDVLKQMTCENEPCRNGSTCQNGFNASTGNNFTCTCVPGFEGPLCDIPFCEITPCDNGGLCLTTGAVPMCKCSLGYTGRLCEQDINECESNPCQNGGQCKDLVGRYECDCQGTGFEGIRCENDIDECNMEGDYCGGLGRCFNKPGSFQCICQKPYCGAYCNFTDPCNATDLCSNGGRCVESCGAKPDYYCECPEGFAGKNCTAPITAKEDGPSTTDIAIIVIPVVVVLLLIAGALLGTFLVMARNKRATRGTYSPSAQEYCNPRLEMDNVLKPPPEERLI

How the values were obtained:
[1] = target: Drosophila E-cadherin, endogenous in larval tracheae (Drosophila melanogaster (endogenous in larval tracheae)) (UniProt Q24298); test: proximity ligation; fixed larval tracheae (fosapn_(sfGFP), DEcad-GFP or SAS-Venus larvae); primary antibodies against GFP and Crb (DEcad and GFP antibodies in Fig 2E); Duolink PLA kit
[2] = target: Stranded at second tagged with Venus (SAS-Venus) (Drosophila melanogaster) (UniProt Q04164); test: as above
[3] = target: Drosophila E-cadherin tagged to GFP (DEcad-GFP) (Drosophila melanogaster) (UniProt Q24298); test: as above
[4] = target: Apnoia, endogenous in larval tracheae (Drosophila melanogaster (endogenous in larval tracheae)) (UniProt Q9VFX3); test: proximity ligation; wild type and apn^1 mutant larval tracheae, Apn and Crb antibodies
[5] = target: Apn-sfGFP, Apnoia C-terminally tagged with superfolder GFP from the fosmid fosapn_(sfGFP) (Drosophila melanogaster) (UniProt Q9VFX3); test: proximity ligation; fixed larval tracheae (fosapn_(sfGFP), DEcad-GFP or SAS-Venus larvae); primary antibodies against GFP and Crb (DEcad and GFP antibodies in Fig 2E); Duolink PLA kit

“Apn-sfGFP, Apnoia C-terminally tagged with superfolder GFP from the fosmid fosapn_(sfGFP) (from UniProt Q9VFX3)” was tested. Which binding [1] did it give?
Its binding is “no binding”.

“Apnoia, endogenous in larval tracheae (from UniProt Q9VFX3)” was tested. Which binding [2] did it give?
The binding was “no binding”.

And the binding [3]?
Its binding is “no binding”.

With “Crumbs, endogenous in larval tracheae (from UniProt P10040 84-2146)” as the substance, how does the binding [4] read?
The binding was “binds”.

And the binding [5]?
The binding was “binds”.
